Molecular target: T1, HIV-1 CA CTD/CAI interaction (Human immunodeficiency virus type 1 group M subtype B, UniProt P12493)
T1 construct: DNA encoding the CA CTD was cloned into BamHI-NotI sites of prokaryotic expression vector pGEX-4 T-1; made in house; host or cells: E. coli BL21(DE3)
Experiment: biochemical
Format: binding
Conditions: read-out: IR (%), inhibitory rate
Protocol: The Discovery Probe FDA-approved Drug Library comprised 1,971 compounds, which were available as stock solutions at 10 mM concentrations in DMSO. Primary screening of these compounds was conducted using a previously established HTRF assay ([Zhang et al., 2019]). Briefly, compound (1 μL), CAI-biotin peptide (2 μL) and GST-CA CTD (2 μL) were dispensed into 384-well microplates. After 30 min incubation at room temperature, 5 μL premixed HTRF agents were added. After an additional 1 h incubation at room temperature, the HTRF signal was acquired by reading the plates in a PerkinElmer Envision Multilabel Plate Reader. Data were analyzed and visualized using GraphPad Prism (version 5.0). […] The quality of the assay was determined by calculating the Z’-factor using the following equation: Z’ = 1 - (3 × SDmax + 3 × SDmin) / |μmax - μmin|, where SDmax and SDmin represent the standard deviations of the positive and negative control measurements, respectively, and μmax and μmin represent the means of the respective positive and negative signal controls ([Zhang et al., 1999]).
We screened a library of 1,971 small molecules, all of which were FDA-approved. Each compound was tested in duplicate at a concentration of 50 μM. […] The remaining compounds were further validated through dose–response analysis using the HTRF assay. […]

Work on `CCCCCCCCCCCCCCCC[n+]1ccccc1` [Cetylpyridinium] yielded an inhibition at 50 µM of 97.5%.
